Measurements as given in patent EP4571306A1, “STABILIZING OXYGEN IN A COMPOSITION” (priority 2023, dated 2025).
At least one compound was matched to its structure with a doubt left.

What was measured:
Type in all cases: physicochemical
[1] = Analyte stability: container shelf-life testing; conditions: stored at 15°C and 25°C; for Last time point tested (Months): TEa not exceeded
[2] = Metal spiking: oxygen decay in PCS containers spiked with copper ions; conditions: 10 ppb Cu(III); 7 days, 37°C
[3] = Metal spiking: oxygen decay in PCS containers spiked with iron ions; conditions: up to 25 to 50 ppb Fe(II); 7 days, 37°C

C[C@H]1COc2c(N3CCN(C)CC3)c(F)cc3c(=O)c(C(=O)O)cn1c23 [levofloxacin]
time to exceed the total allowable error (TEa) for each analyte ([1]; 95% confidence level): greater than 10.2 months
Last time point tested (Months) ([1]; analyte Ca++): 10.2 Months
Last time point tested (Months) ([1]; analyte Cl-): 10.2 Months
Last time point tested (Months) ([1]; analyte Glu): 10.2 Months
Last time point tested (Months) ([1]; analyte K+): 10.2 Months
Last time point tested (Months) ([1]; analyte Lac): 10.2 Months
Last time point tested (Months) ([1]; analyte Na+): 10.2 Months
Last time point tested (Months) ([1]; analyte pCO2): 10.2 Months
Last time point tested (Months) ([1]; analyte pH): 10.2 Months
Last time point tested (Months) ([1]; analyte pO2): 10.2 Months
Last time point tested (Months) ([1]; analyte tHb): 10.2 Months
protection against oxidation [2]: significant protection against oxidation
protection against oxidation [3]: significant protection against oxidation
